According to PubChem BioAssay AID2685 (National Center for Advancing Translational Sciences (NCATS), 2010):
Screen size: about 320,000 compounds; about 2,100 (0.66%) were called active. The inconclusive results got no clear call from the source; some entries with a clear call stand among them for comparison. The call rests on the fitted dose curve; in most records, active means well fitted inhibition curve with a large enough effect in the signal ratio, with a control signal flat (not every such curve was filed as active); inconclusive means small, poorly fitted or top-dose-only effect, or effect the other way, or a change in a side signal; inactive means flat fitted curve, though single readings scatter; the % refers to the signal ratio. Where the call is inconclusive, the potency comes from a doubtful curve fit.

Assay: qHTS Assay for Lipid Storage Modulators in Drosophila S3 Cells
Details: BODIPY lipid droplet fluorescence, 18-24 h, cells fed with added oleic acid; lipid storage change, negative = inhibition: at 46.1 µM (top of the series) unless noted
Summary of the method: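 Drosophila S3 cells loaded with oleic acid (400 uM, as added) and compounds at several concentrations; lipid droplets imaged by 488-nm laser-scanning cytometry, 500–530 nm intensity and object ratio to cell channel. Percent activity normalized to 20 uM Triacsin C.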
On the % scale 0 is the no-effect control and ±100 the full control effect; potency means the concentration at half of the fitted maximal effect.

| Compound | lipid storage change, negative = inhibition | Potency | outcome |
| --- | --- | --- | --- |
| Cn1cc(Br)c(C(=O)N/N=C/c2cccc(OC3CSC3)c2)n1 | inconclusive: -0.327% |  |  |
| COc1cc(S(=O)(=O)N(Cc2ccco2)C2CCCC2)ccc1-n1cnnn1 | inconclusive: 30.3% |  |  |
| Cc1ccc(-n2c(C)cc(C=C(C#N)C#N)c2C)cc1 |  | inconclusive: 29.1 µM [falling, single point] |  |
| Cc1cc(CN2C(=O)c3ccccc3C2=O)cc(N2CCOCC2)c1 |  | inconclusive: 6.51 µM [activator, single point] |  |
| COc1ccc(/C=N/NC(=O)CNS(=O)(=O)c2ccccc2)cc1 |  | inconclusive: 3.26 µM [activator, full curve, poor fit] |  |
| CC1=C(C#N)C(c2ccccc2)C2=C(N1)c1ccccc1C2=O (centres undefined) | inconclusive: 33.4% |  |  |
| COc1ccc(CNC(=O)CNS(=O)(=O)c2cccs2)cc1 |  | inconclusive: 6.51 µM [activator, single point] |  |
| CC(=O)Nc1ccc(N/C(C)=C/C(=O)c2cccnc2)cc1 | inconclusive: 8.8% |  |  |
| CC(=O)C1=C(O)C(=O)N(c2cccc(Br)c2)C1c1ccc(Br)cc1 (centres undefined) |  | inconclusive: 29.1 µM [activator, single point] |  |
| CC[C@@H]1CC=C[C@H]2[C@H]1C(=O)N(Cc1ccccc1)[C@H]2c1ccoc1 | inconclusive: -60.9% |  |  |
| COc1cc2nc(Nc3cccc(F)c3)nc(N)c2cc1OC | inconclusive: 277% |  |  |
| COc1cc(NC(=O)CSc2nc3c(c(=O)n(C)c(=O)n3C)n2C)cc(OC)c1 |  | inconclusive: 6.51 µM [falling, single point] |  |
| COc1ccc(N2CCN(S(=O)(=O)CCNC(=O)c3ccc4c(c3)OCO4)CC2)cc1 |  | inconclusive: 16.4 µM [activator, single point] |  |
| COc1cccc(-c2c(C(=O)N/N=C(\C)COc3ccccc3)nnn2-c2nonc2N)c1 | inconclusive: 25.6% |  |  |
| Nc1c(C(=O)CSc2nnc(Nc3ccc(F)cc3)s2)c(=O)[nH]c(=O)n1C1CC1 | inconclusive: 2.11% |  |  |
| O=C(Cc1ccccc1)N1CCCC1c1ccccc1 (centres undefined) | inconclusive: -31% |  |  |
| COc1ccc(C(=O)CSc2nc(N)nc(SC)c2C#N)cc1 | inconclusive: 207% |  |  |
| O=C(OCC#CCSc1nnc(-c2cccc3ccccc23)o1)c1cccc2[nH]ccc12 | inconclusive: 7.78% |  |  |
| NC(=O)CCCn1c(C(=O)c2ccc(Cl)cc2)c2ccc(C(F)(F)F)cc2[n+]1[O-] | inconclusive: 13.2% |  |  |
| O=C(O)c1cccc(NC(=O)C23CC4CC(C2)CC(n2cnc(Cl)n2)(C4)C3)c1 | inconclusive: -0.0629% |  |  |
| COc1cc(NC(=O)CSc2nnnn2C2CCCC2)cc(OC)c1 |  |  | inactive [at 46.1 µM] |
| CCOc1ccccc1N1CSC2=C(C#N)C(c3c(OC)ccc4ccccc34)CC(=O)N2C1 (centres undefined) | inconclusive: 62.6% |  |  |
| CCOC(=O)C(C)Sc1nnc(NC(=O)c2ccc(C)c([N+](=O)[O-])c2)s1 (centres undefined) | inconclusive: 14.4% |  |  |
| O=C(NCCc1ccc(Cl)cc1)C1CCN(c2cnccn2)CC1 |  | inconclusive: 0.13 µM [activator, full curve, poor fit] |  |
| CN(CCNC(=O)C1CCN(S(=O)(=O)c2cnc[nH]2)CC1)Cc1ccccc1 | inactive: -0.914% |  |  |

| Compound | lipid storage change, negative = inhibition | Potency | outcome |
| --- | --- | --- | --- |
| Cc1ccc(S(=O)(=O)CCC(=O)Nc2nc(-c3ccccn3)cs2)cc1 |  | inconclusive: 0.103 µM [falling, full curve, poor fit] |  |
| CCN(CC)S(=O)(=O)c1ccc(N2CCCC2)c(NC(=O)c2ccccc2OC)c1 | inconclusive: 17.2% |  |  |
| Cc1ccc(Nc2ncccc2C(=O)NCc2cccs2)c(C)c1 | inconclusive: -17.9% |  |  |
| O=C(Nc1ccc(NC(=O)c2ccco2)cc1)c1cnccn1 | inconclusive: 1.77% |  |  |
| Cc1ccc(C(=O)C(C)OC(=O)c2ccccc2[N+](=O)[O-])cc1 (centres undefined) | inconclusive: 118% |  |  |
| CCOc1cc(/C=C(\C#N)C(=O)NCc2cccnc2)ccc1O | inconclusive: -0.835% |  |  |
| COc1ccc(OCC(=O)N/N=C(\C)CC(=O)Nc2ccc(OC)cc2[N+](=O)[O-])cc1 | inconclusive: -10.3% |  |  |
| Cc1cc(C)n(-c2nnc(NCc3ccc(Cl)cc3)nn2)n1 | inconclusive: -1.34% |  |  |
| CSCC[C@H](NC(=O)OC(C)(C)C)c1nnc(SCC(=O)Nc2c(C)cccc2C)o1 | inconclusive: -5.84% |  |  |
| CCCCN(CCCC)/C(N)=N/c1nc(C)cc(C)n1 | inconclusive: -43.3% |  |  |
| CC(=O)Nc1ccc(OCCOc2ccccc2C(C)=O)cc1 |  | inconclusive: 0.58 µM [activator, single point] |  |
| Cc1ccc2cccnc2c1N | inconclusive: 0.111% |  |  |
| CCOC(=O)c1cnc2c(C(F)(F)F)cccc2c1N1CCOCC1 | inconclusive: 86.5% |  |  |
| Cc1nn(-c2ccccc2)c(Cl)c1/C=C/C(=O)c1ccc(O)cc1 |  | inconclusive: 16.4 µM [cytotoxic, single point] |  |
| Cc1c(CCC(=O)N2CCC(C(=O)O)(c3ccccc3)CC2)c(=O)oc2cc3oc4c(c3cc12)CCCC4 | inconclusive: -46.2% |  |  |
| Cc1cccc(-n2ncc3c(NCCc4ccc(S(N)(=O)=O)cc4)ncnc32)c1 |  | inconclusive: 20.6 µM [falling, single point] |  |
| CCCCOC(=O)c1ccc(NC(=O)C2CCCO2)cc1 (centres undefined) |  | inconclusive: 2.59 µM [activator, full curve] |  |
| O=C(NCCCN1CCOCC1)C(=O)NCc1ccccc1Cl | inconclusive: -12.7% |  |  |
| NC(=O)c1ccccc1OCC(=O)NC12CC3CC(CC(C3)C1)C2 | inconclusive: -3.4% |  |  |
| CS(=O)(=O)c1ccccc1-c1nnc(NC(=O)c2ccco2)o1 | inconclusive |  |  |
| CSc1ccccc1C(=O)NCCCn1ccnc1 |  | inconclusive: 23.1 µM [falling, single point] |  |
| Cc1cc(-c2nnc(SCc3cccnc3)o2)no1 | inconclusive: 1.03% |  |  |
| Cc1ccc(Sc2ccncc2S(N)(=O)=O)cc1 | inconclusive: -6.86% |  |  |
| Cc1cc(S(=O)(=O)NCc2cccnc2)ccc1F |  | inconclusive: 6.51 µM [activator, partial curve, poor fit] |  |
